The values below come from PMC12096823, “SloR-SRE binding to the S. mutans mntH promoter is cooperative”.

Construct, isoform or probe ends are uncertain for at least one entry. A negative result means that nothing was seen under these conditions. At least one verdict rests on a figure or table, not on a statement of the authors. Where a protein sequence is shown, tags need not be part of it.

The data set deals with T1, SloR (UniProt I6L923).
T1 sequence (looked up, limits assumed): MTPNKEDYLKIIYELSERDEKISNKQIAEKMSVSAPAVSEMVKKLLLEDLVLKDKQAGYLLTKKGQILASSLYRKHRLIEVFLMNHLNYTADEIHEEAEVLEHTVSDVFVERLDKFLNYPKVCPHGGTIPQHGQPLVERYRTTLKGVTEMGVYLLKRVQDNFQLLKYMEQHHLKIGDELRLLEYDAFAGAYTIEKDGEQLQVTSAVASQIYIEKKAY
Description: EMSA. The settings on record: EMSA: 60-200 nM SloR, 16 uL, 12% native gel, buffer as cited, recombinant protein.

[1] abbreviates: 15 mM EDTA, label: 5' 32P, letters put together from the description.

On to “AGGTACACCTTTTTTAATTTTTAAGCATACTTAACATATGCTGTTTTTTATGCTATAATGCAATTAACCCAATTATATTAGAAAAGAGATTTTCAAAATG (double strand) [mntH 100-bp deletion amplicon]”, for which the binding result under setting [1] is reported as “no binding”.

For the sequence “CTTTTCGCAATCTGATTGTTTAGACATCTCTGATTAATTTTCCATAATCTCTATTGTGTTTTATACTGTCAGTAATTCTTACAAACTCTTTATATTCAGTAATAATAGGTACACCTTTTTTAATTTTTAAGCATACTTAACATATGCTGTTTTTTATGCTATAATGCAATTAACCCAATTATATTAGAAAAGAGATTTTCAAAATG (double strand) [mntH 206-bp promoter probe]”, the binding result was “binds” (60 nM SloR, label: 5' 32P) and “no binding” (15 mM EDTA, label: 5' 32P).

For “TACTGTCAGTAATTCTTACAAACTCTTTATATTCAGTAATAATAGGTACACCTTTTTTAATTTTTAAGCATACTTAACATATGCTGTTTTTTATGCTATA (double strand) [mntH.100.WT]”, the binding result (15 mM EDTA, label: 5' 32P) is listed as “no binding”.

Regarding “TCTCTATTGTGTTTTATACTGTCAGTAATTCTTACAAACTCTTTATATTCAGTAATAATAGGTACACCTTTTTTAATTTTTAAGCATACTTAACATATGCTGTTTTTTATGCTATAATGCAATTAACCCAATTATATTAGAAAAGAGATTTTCAAAATG (double strand) [mntH 159-bp promoter probe]”, under setting [1], the binding result is listed as “no binding”.

Turning to “ATTTTTAAGCATACTTAACATA (double strand) [mntH.22.SRE1.WT]”, the binding result (15 mM EDTA, label: 5' 32P in EMSA) is reported as “no binding”.
